14 molecules from PubChem BioAssay AID330 (DTP/NCI, 2004) can be followed below.

The test system of this assay is P388 leukemia ip, CD2F1 mice, survival T/C. The assay can be described thus: NCI In Vivo Anticancer Drug Screen. Data for tumor model P388 Leukemia (intraperitoneal) in CD2F1 (CDF1) mice. To be noted: T/C endpoint: median survival time, higher T/C = longer survival.
Setting [1] is: dose: 200.0 mg/kg/injection, schedule: Q01DX009 (ip), vehicle: saline with Tween-80.
The mark [2] stands for this setting: dose: 200.0 mg/kg/injection, schedule: Q01DX009 (ip), vehicle: water.
[3] abbreviates: dose: 240.0 mg/kg/injection, schedule: Q01DX005 (ip), vehicle: saline.

Molecules are shown by their SMILES. The list is a part of this screen's results and no random one: it gathers tests that were run many times, whatever their T/C, doses with no T/C, and many T/C values between a quarter and a half above the control. Other doses and runs of a compound stand elsewhere. T/C: endpoint of the treated group in % of that of the vehicle group. Some doses have a count of surviving animals in place of a T/C: the source holds a T/C of zero for them, seemingly a mark for toxic or unscored doses. Some doses without a T/C left all or most animals alive at the check, yet need not have been tolerated: the source hardly ever lists a survival T/C far under the control, and the zero likely stands for such cases as well. Survivors were counted at the toxicity check, usually on the fifth day, unless a day is given; later deaths do not show. Schedule codes are those of the source, taken here to give the interval after Q, in days (D) or hours (H), and the number of doses after X. Some doses were run more than once; the values are given in rising order. Some molecules as drawn cover several salts, stereoisomers or complexes of the source; a dose is that of the sample tested. Where survival is the endpoint, the PubChem record calls one and a half times the control and up active, and a quarter to a half above the control has no call in these data; cut-offs in other NCI protocols can differ. Some T/C values carry the count of animals alive at the toxicity check (mostly the fifth day); where none is given, no animal had died by that day.

For the molecule `O=C(O)c1c2c(nc3ccccc13)Cc1ccccc1-2`, the T/C by setting is: (dose: 50.0 mg/kg/injection, schedule: Q01DX009 (ip), vehicle: Klucel (hydroxypropylcellulose) (HPC), evaluated on day 30) 132 % of control; (dose: 50.0 mg/kg/injection, schedule: Q01DX009 (ip), vehicle: Klucel (hydroxypropylcellulose) (HPC), evaluated on day 60) 133 % of control; (dose: 50.0 mg/kg/injection, schedule: Q01DX009 (ip), vehicle: water) 130 % of control; (dose: 100.0 mg/kg/injection, schedule: Q01DX009 (ip), vehicle: water) 138 % of control; under setting [1], 125 % of control [5 of 6 alive]; under setting [2], 135 % of control. The survivor count by setting is: under setting [2], 2 of 6; (dose: 300.0 mg/kg/injection, schedule: Q01DX009 (ip), vehicle: Klucel (hydroxypropylcellulose) (HPC)) 0 of 6; (dose: 300.0 mg/kg/injection, schedule: Q01DX009 (ip), vehicle: saline with Tween-80) 0 of 6; (dose: 400.0 mg/kg/injection, schedule: Q01DX009 (ip), vehicle: water) 1 of 6.
In the case of `COc1cc2c3c4c(ccc3c1OC)CCCN4CC2`, where the note is “dose: 200.0 mg/kg/injection, schedule: Q01DX005 (ip), vehicle: Klucel + Tween-80”, the survivor count is listed as 0 of 6.
`CN(C)c1ccc(/C=C/c2ccccn2)cc1`: the survivor count (dose: 50.0 mg/kg/injection, schedule: Q01DX009 (ip), vehicle: saline with Tween-80) is 6 of 6; the survivor count (dose: 100.0 mg/kg/injection, schedule: Q01DX009 (ip), vehicle: saline with Tween-80) is 0 of 6; the survivor count under setting [1] is 0 of 6.
Regarding `CC1(C)N=C(N)N=C(N)N1c1ccc(OCC(=O)Nc2ccc(S(=O)(=O)F)cc2)c(Cl)c1`, where the note is “dose: 400.0 mg/kg/injection, schedule: Q04DX003 (ip), vehicle: saline”, the survivor count is recorded as 6 of 6.
As for `COc1cc2c(cc1NC(=O)N(CCCl)N=O)-c1ccccc1C2`, the T/C (dose: 43.25 mg/kg/injection, schedule: Q04DX003 (ip), vehicle: Klucel (hydroxypropylcellulose) (HPC)) was 125 % of control; the T/C (dose: 86.5 mg/kg/injection, schedule: Q04DX003 (ip), vehicle: Klucel (hydroxypropylcellulose) (HPC)) is 144 % of control [5 of 6 alive]; the T/C (dose: 175.0 mg/kg/injection, schedule: Q04DX003 (ip), vehicle: Klucel (hydroxypropylcellulose) (HPC)) was 144 % of control.
As for `CCCCOC(=O)NC(=O)c1cc2cc(Cl)ccc2oc1=O`, under “dose: 200.0 mg/kg/injection, schedule: Q01DX005 (ip), vehicle: saline with Tween-80”, the survivor count is 6 of 6.
Consider `CCn1c2ccc(C(=O)CCCN(C)C)cc2c2cc(C(=O)CCCN(C)C)ccc21`, for which the T/C reads like this: (dose: 12.5 mg/kg/injection, schedule: Q01DX009 (ip), vehicle: saline) 132 % of control; (dose: 25.0 mg/kg/injection, schedule: Q01DX009 (ip), vehicle: saline) 129 % of control; (dose: 50.0 mg/kg/injection, schedule: Q01DX009 (ip), vehicle: saline) 102, 107, 109, 122 % of control [5 of 6 alive]. In addition, the survivor count reads like this: (dose: 100.0 mg/kg/injection, schedule: Q01DX009 (ip), vehicle: saline) 0 of 6, 1 of 6, 2 of 6; (dose: 200.0 mg/kg/injection, schedule: Q01DX009 (ip), vehicle: saline) 0 of 6.
`CC(=O)Oc1cccnc1C(C#N)C#N`: the survivor count (dose: 50.0 mg/kg/injection, schedule: Q01DX005 (ip), vehicle: saline with Tween-80) is 4 of 6.
For `CC1/C(=N\N=C(N)N)c2ccccc2/C1=N/N=C(N)N` (stereo not given), the survivor count runs as follows: (dose: 200.0 mg/kg/injection, schedule: Q01DX001 (ip), vehicle: saline with Tween-80) 0 of 6; (dose: 400.0 mg/kg/injection, schedule: Q01DX001 (ip), vehicle: saline with Tween-80) 0 of 6.
As to `COC(=O)C1=C(C(=O)OC)P2(C)(C)ON=C(c3c(C)cc(C)cc3C)N2C1(c1ccccc1)c1ccccc1`, the survivor count (dose: 100.0 mg/kg/injection, schedule: Q01DX005 (ip), vehicle: Klucel (hydroxypropylcellulose) (HPC)) is 6 of 6.
`COc1c(Br)cc(/C=C/[N+](=O)[O-])cc1Br`: the T/C (dose: 25.0 mg/kg/injection, schedule: Q01DX009 (ip), vehicle: saline with Tween-80) is 133 % of control [5 of 6 alive].
With `CCCCCc1nc(N)nc(-c2nc(N)nc(CCCCC)c2C)c1C`, the survivor count under setting [3] is recorded as 3 of 6.
In the case of `CS(=O)(=O)CC#N`, the survivor count (dose: 60.0 mg/kg/injection, schedule: Q01DX005 (ip), vehicle: saline) was 0 of 6; the survivor count (dose: 120.0 mg/kg/injection, schedule: Q01DX005 (ip), vehicle: saline) is reported as 0 of 6; the survivor count under setting [3] is 0 of 6.
Take `CSc1nccc(=O)n1-c1ccccc1F`: the survivor count by setting is: (dose: 200.0 mg/kg/injection, schedule: Q04DX002 (ip), vehicle: Klucel (hydroxypropylcellulose) (HPC)) 1 of 6; (dose: 400.0 mg/kg/injection, schedule: Q04DX002 (ip), vehicle: Klucel (hydroxypropylcellulose) (HPC)) 0 of 6.
